Data as given in PMC8184850, “Cryo-EM structure of TFIIH/Rad4–Rad23–Rad33 in damaged DNA opening in nucleotide excision repair” (Nature Communications, 2021).
Results are given in words; binding and its absence hold for the method and conditions named. Some entries that bind do so weakly or less than the wild type. For some assays here: Where a sequence is shown, tags or fusion partners need not be part of it.

T1: Ssl2 (Saccharomyces cerevisiae), Q00578
T1 chain: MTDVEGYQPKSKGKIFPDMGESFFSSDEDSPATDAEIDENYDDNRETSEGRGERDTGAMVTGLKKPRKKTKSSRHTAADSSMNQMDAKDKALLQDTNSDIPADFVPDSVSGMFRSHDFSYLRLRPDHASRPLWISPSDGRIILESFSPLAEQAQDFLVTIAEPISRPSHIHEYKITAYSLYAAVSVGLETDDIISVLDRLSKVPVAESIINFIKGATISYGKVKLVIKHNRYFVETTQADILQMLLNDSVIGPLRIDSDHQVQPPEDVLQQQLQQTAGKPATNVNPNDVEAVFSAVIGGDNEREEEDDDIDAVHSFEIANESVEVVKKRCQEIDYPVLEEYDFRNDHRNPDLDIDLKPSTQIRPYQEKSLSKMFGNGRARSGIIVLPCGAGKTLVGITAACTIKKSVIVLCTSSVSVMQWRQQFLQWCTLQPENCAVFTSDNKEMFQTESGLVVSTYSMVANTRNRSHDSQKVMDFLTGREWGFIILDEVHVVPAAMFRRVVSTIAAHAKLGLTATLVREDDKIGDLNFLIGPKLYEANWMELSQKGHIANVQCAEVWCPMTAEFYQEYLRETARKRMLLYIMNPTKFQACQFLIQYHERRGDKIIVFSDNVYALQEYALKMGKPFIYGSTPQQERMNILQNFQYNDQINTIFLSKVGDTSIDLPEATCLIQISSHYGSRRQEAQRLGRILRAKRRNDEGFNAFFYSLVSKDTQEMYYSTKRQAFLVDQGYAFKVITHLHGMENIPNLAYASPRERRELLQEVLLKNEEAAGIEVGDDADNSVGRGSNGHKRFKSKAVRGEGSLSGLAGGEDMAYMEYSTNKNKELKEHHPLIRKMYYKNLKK

B1: Tfb5 (natural protein, yeast, UniProt Q3E7C1 1-72, looked up)
chain: MARARKGALVQCDPSIKALILQIDAKMSDIVLEELDDTHLLVNPSKVEFVKHELNRLLSKNIYNPMDEEENQ
notes: Tfb5 (p8 homologue), subunit of yeast coreTFIIH; Stood in the assays as part of coreTFIIH; also called yeast homologue of p8; source: purified from yeast as a subunit of coreTFIIH
B2: Rad2 (natural protein, yeast, UniProt P07276 1-1031, looked up)
chain: MGVHSFWDIAGPTARPVRLESLEDKRMAVDASIWIYQFLKAVRDQEGNAVKNSHITGFFRRICKLLYFGIRPVFVFDGGVPVLKRETIRQRKERRQGKRESAKSTARKLLALQLQNGSNDNVKNSTPSSGSSVQIFKPQDEWDLPDIPGFKYDKEDARVNSNKTFEKLMNSINGDGLEDIDLDTINPASAEFEELPKATQYLILSSLRLKSRLRMGYSKEQLETIFPNSMDFSRFQIDMVKRRNFFTQKLINTTGFQDGGASKLNEEVINRISGQKSKEYKLTKTNNGWILGLGANDGSDAQKAIVIDDKDAGALVKQLDSNAEDGDVLRWDDLEDNSLKIVRHESSNATTAPQKRSNRSEDEGCDSDECEWEEVELKPKNVKFVEDFSLKAARLPYMGQSLNNAGSKSFLDKRHDQASPSKTTPTMRISRISVEDDDEDYLKQIEEIEMMEAVQLSKMEKKPEADDKSKIAKPVTSKGTEARPPIVQYGLLGAQPDSKQPYHVTNLNSKSESVIKRTSKTVLSEFRPPSQQEDKGAILTEGEQNLNFISHKIPQFDFNNENSLLFQKNTESNVSQEATKEKSPIPEMPSWFSSTASQQLYNPYNTTNFVEDKNVRNEQESGAETTNKGSSYELLTGLNATEILERESEKESSNDENKDDDLEVLSEELFEDVPTKSQISKEAEDNDSRKVESINKEHRKPLIFDYDFSEDEEDNIVENMIKEQEEFDTFKNTTLSTSAERNVAENAFVEDELFEQQMKDKRDSDEVTMDMIKEVQELLSRFGIPYITAPMEAEAQCAELLQLNLVDGIITDDSDVFLFGGTKIYKNMFHEKNYVEFYDAESILKLLGLDRKNMIELAQLLGSDYTNGLKGMGPVSSIEVIAEFGNLKNFKDWYNNGQFDKRKQETENKFEKDLRKKLVNNEIILDDDFPSVMVYDAYMRPEVDHDTTPFVWGVPDLDMLRSFMKTQLGWPHEKSDEILIPLIRDVNKRKKKGKQKRINEFFPREYISGDKKLNTSKRISTATGKLKKRKM
notes: Rad2 (XPG homologue), yeast; plasmid pGVD52-RAD2HisSumo; also called yeast homolog of XPG; source: E. coli Rosetta(DE3), purified (HisTrap, Ulp1 cleavage, HisTrap flow-through, Heparin HP)

Legend:
[1] = molecular target: T1, Ssl2 (Saccharomyces cerevisiae), Q00578; assay: cryo-EM structure; coreTFIIH and Rad4–Rad23–Rad33 on −24*/+24 AAF-DNA with ATP, glycerol gradient with glutaraldehyde; Map 1 3.86 Å (TFIIH), Map 2 9.2 Å, Map 3 7.9 Å; Rad4, Rad33 and the Tfb1 PH domain placed by rigid-body docking of known structures or homology models; both purified; conditions: remark: other sources report otherwise
7-subunit coreTFIIH = molecular target: T2, 7-subunit coreTFIIH (Saccharomyces cerevisiae | yeast, UniProt Q00578 1-843; P06839 1-778; P32776 1-642; Q02939 1-513; Q04673 1-461; Q12004 …); assay: condition: only with AMP-PNP instead of ATP; Rad2 in ~6-fold molar excess; co-sedimentation; factor challenge as a5 but with AMP-PNP instead of ATP; both purified
T2 construct: Ssl2 (XPB homologue), ATPase/translocase subunit of yeast coreTFIIH; printed numbering runs to residue 843; Rad3 (XPD homologue), helicase subunit of yeast coreTFIIH; Tfb1 (p62 homologue), subunit of yeast coreTFIIH; Tfb2 (p52 homologue), subunit of yeast coreTFIIH; Ssl1 (p44 homologue), subunit of yeast coreTFIIH; Tfb4 (p34 homologue), subunit of yeast coreTFIIH; Tfb5 (p8 homologue), subunit of …

| binding [1] | binding (7-subunit coreTFIIH) | Binder |
| --- | --- | --- |
| binds |  | B1 |
|  | no binding | B2 |
